The results in this text go back to the supplement of paper PMC11732987, “Enantioselective OTUD7B fragment discovery through chemoproteomics screening and high-throughput optimisation” (Communications Chemistry, 2025).

The other results are listed elsewhere or left out. The data scatter; read single values as rough.

Compound in the first assay: ClCC(=O)N[C@@H]1CCCc2ccccc12
The assay is described as follows: log2 mean competition ratio of IA-DTB cysteine labelling (DMSO/compound) (log2 ratio); higher = stronger cysteine engagement by compound. Conditions: 200 µM; treatment time: 4 h; cell line lysate: HEK293T. As for the experimental part: (§1)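 IA-DTB competitive cysteine chemoproteomics in HEK293T RIPA lysate. Lysates were treated with compound 29 or 30 at 50 or 200 µM for 4 h, then IA-DTB (500 µM, 1 h), trypsin-digested, NeutrAvidin-enriched and analysed by diaPASEF. Competition ratio = intensity DMSO / intensity compound (n=4 treated, n=64 DMSO); binding: mean log2 CR ≥ 1 and p ≤ 0.05 plus QC filters. Target is the cysteine site.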
Regarding RFK C8 (UniProt Q969G6), the “log2 mean competition ratio” value was -0.0594.
For RCCD1 C139 (UniProt A6NED2), the “log2 mean competition ratio” value came out at 0.617.
Regarding RARS2 C311 (UniProt Q5T160), the “log2 mean competition ratio” value is -0.224.
Consider RBL2 C368 (UniProt Q08999), for which the “log2 mean competition ratio” value is 0.182.
Take RECQL C447 (UniProt P46063): the “log2 mean competition ratio” value is -0.22.
On the same count and under the same terms, the same measure for RASA1 C876 (UniProt P20936): -0.331; for RILPL2 C161 (UniProt Q969X0): -0.281.
On to RB1CC1 C572 (UniProt Q8TDY2), for which the “log2 mean competition ratio” value worked out at 0.156.
Regarding RMI1 C268 (UniProt Q9H9A7), the “log2 mean competition ratio” value is -0.312.
Consider RIF1 C1718 (UniProt Q5UIP0), for which the “log2 mean competition ratio” value is 0.0508.
Same read-out and setting: the result for RALGAPA2 C1662 (UniProt Q2PPJ7) reads -0.0426; that for RCL1 C171, 0.345.
Same read-out and setting: the result for RBM45 C90 (UniProt Q8IUH3) reads -0.0327.
For the target RHOBTB3 C155 (UniProt O94955), the “log2 mean competition ratio” value came to 0.19.
Take RAP1GDS1 C117 (UniProt P52306): the “log2 mean competition ratio” value amounted to 0.226.
As to RBM34 C196 (UniProt P42696), the “log2 mean competition ratio” value worked out at 0.09.
Turning to RIOX2 C19 (UniProt Q8IUF8), the “log2 mean competition ratio” value was -0.0681.
As for RAI14 C68 (UniProt Q9P0K7), the “log2 mean competition ratio” value was -0.359.
Turning to RBM12B C837 (UniProt Q8IXT5), the “log2 mean competition ratio” value stood at 0.149.
Take RHOF C173 (UniProt Q9HBH0): the “log2 mean competition ratio” value came to 0.0434.
Regarding RCC1L C329 (UniProt Q96I51), the “log2 mean competition ratio” value stood at 0.032.
As to RANBP2 C188 (UniProt P49792), the “log2 mean competition ratio” value is -0.123.
Same read-out and setting: the same measure for RCC2 C42 (UniProt Q9P258): -0.035.
Same read-out and setting: the same measure for RASSF7 C122 (UniProt Q02833): 0.0736; for RB1CC1 C925 (UniProt Q8TDY2): -0.256.
RELCH C605 (UniProt Q9P260): the “log2 mean competition ratio” value was -0.0587.
Regarding RFWD3 C379 (UniProt Q6PCD5), the “log2 mean competition ratio” value worked out at 0.363.
For RIPK2 C324 (UniProt O43353), the “log2 mean competition ratio” value was 0.184.
Regarding RBM19 C77 (UniProt Q9Y4C8), the “log2 mean competition ratio” value is 0.233.
With RIMOC1 C51, the “log2 mean competition ratio” value was found to be 0.177.
For RBM26 C25 (UniProt Q5T8P6), the “log2 mean competition ratio” value is -0.156.
Turning to RHOQ C144 (UniProt P17081), the “log2 mean competition ratio” value is 0.157.
On the same count and under the same terms, the same measure for REST C945 (UniProt Q13127): 0.326.
For RARS1 C638, the “log2 mean competition ratio” value is -0.0897.
Consider RFC1 C916 (UniProt P35251), for which the “log2 mean competition ratio” value was 0.129.
Same read-out and setting: the result for RANBP10 C569 (UniProt Q6VN20) reads -0.354.
RFLNB C186 (UniProt Q8N5W9): the “log2 mean competition ratio” value amounted to 0.383.
On the same count and under the same terms, the same measure for RBM4B C89 (UniProt Q9BQ04): 0.0821.

Compound in another assay: ClCC(=O)N[C@H]1CCCc2ccccc12
The assay is described as above. Conditions: 50 µM; treatment time: 4 h; cell line lysate: HEK293T. As for the experimental part:
as §1
On to RCCD1 C139 (UniProt A6NED2), for which the “log2 mean competition ratio” value stood at 0.124.
RASA1 C876 (UniProt P20936): the “log2 mean competition ratio” value is 0.484.
Consider RB1CC1 C572 (UniProt Q8TDY2), for which the “log2 mean competition ratio” value was -0.311.
The same measure, in the same setting: the result for RIF1 C1718 (UniProt Q5UIP0) reads 0.143; that for RCL1 C171, 0.138; that for RHOBTB3 C155 (UniProt O94955), 0.115.
As to RAP1GDS1 C117 (UniProt P52306), the “log2 mean competition ratio” value was -0.028.
On the same count and under the same terms, the result for RAI14 C68 (UniProt Q9P0K7) reads -0.158; that for RBM12B C837 (UniProt Q8IXT5), 0.0799.
Still for that read-out and setting: the same measure for RCC1L C329 (UniProt Q96I51): 0.323; for RBM26 C25 (UniProt Q5T8P6): -0.312.
With REST C945 (UniProt Q13127), the “log2 mean competition ratio” value was -0.284.
The same measure, in the same setting: the result for RFLNB C186 (UniProt Q8N5W9) reads 0.492.
Turning to RBM4B C89 (UniProt Q9BQ04), the “log2 mean competition ratio” value is -0.57.

The assay is the same for the next values; noted with them: 200 µM; treatment time: 4 h; cell line lysate: HEK293T.
With RCCD1 C139 (UniProt A6NED2), the “log2 mean competition ratio” value worked out at 1.45.
Consider RASA1 C876 (UniProt P20936), for which the “log2 mean competition ratio” value is -0.113.
With RB1CC1 C572 (UniProt Q8TDY2), the “log2 mean competition ratio” value was 0.147.
Take RIF1 C1718 (UniProt Q5UIP0): the “log2 mean competition ratio” value was -0.0307.
On to RCL1 C171, for which the “log2 mean competition ratio” value was -0.00486.
Consider RHOBTB3 C155 (UniProt O94955), for which the “log2 mean competition ratio” value was found to be 0.204.
For RAP1GDS1 C117 (UniProt P52306), the “log2 mean competition ratio” value was determined as 0.209.
On the same count and under the same terms, the same measure for RAI14 C68 (UniProt Q9P0K7): -0.0406.
For RBM12B C837 (UniProt Q8IXT5), the “log2 mean competition ratio” value came to 0.0625.
Take RCC1L C329 (UniProt Q96I51): the “log2 mean competition ratio” value is -0.127.
On the same count and under the same terms, the result for RB1CC1 C925 (UniProt Q8TDY2) reads -0.224.
On the same count and under the same terms, the result for RBM26 C25 (UniProt Q5T8P6) reads -0.0869.
Consider REST C945 (UniProt Q13127), for which the “log2 mean competition ratio” value was determined as 0.178.
In the case of RFLNB C186 (UniProt Q8N5W9), the “log2 mean competition ratio” value is 0.221.
For RBM4B C89 (UniProt Q9BQ04), the “log2 mean competition ratio” value is -0.0781.
